The name of at least one read-out is uncertain.
System: Pyricularia oryzae
Assay type: in vivo
Conditions: spray concentration 1 ppm; rice seedlings, spray before inoculation

With `OC(Cc1ccccc1Cl)(Cn1nc[nH]c1=S)C1(Cl)CC1` (stereo not shown) [Prothioconazole] the “Control Efficacy” value was 20.

Reference: patent publication US20250234864A1 (priority 2022, published 2025)
